Reference: article PMC7613766
These are yes or no findings as the source states them, for the method shown. In cells and extracts the contact can be indirect. A yes stands for co-enrichment or nearness to the bait. Other partners may have been found.

Protein sequences, listed by entry. Tags and fused reporters are not part of them.
UniProt Q9UKL0: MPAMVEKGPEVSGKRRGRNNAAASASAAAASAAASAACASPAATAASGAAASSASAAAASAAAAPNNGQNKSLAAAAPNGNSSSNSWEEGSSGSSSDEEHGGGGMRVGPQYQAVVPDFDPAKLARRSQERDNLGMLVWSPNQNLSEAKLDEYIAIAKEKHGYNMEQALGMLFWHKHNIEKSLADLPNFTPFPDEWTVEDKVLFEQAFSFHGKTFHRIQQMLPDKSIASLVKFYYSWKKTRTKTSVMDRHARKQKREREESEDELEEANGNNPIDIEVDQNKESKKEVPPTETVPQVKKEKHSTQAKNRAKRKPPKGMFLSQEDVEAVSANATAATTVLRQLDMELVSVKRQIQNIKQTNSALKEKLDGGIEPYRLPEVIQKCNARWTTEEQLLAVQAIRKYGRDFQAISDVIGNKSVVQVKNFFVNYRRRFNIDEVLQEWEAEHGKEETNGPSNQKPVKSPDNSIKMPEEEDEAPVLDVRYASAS

T1: HMG20B (human (endogenous in THP1)) (UniProt Q9P0W2)
T1 sequence: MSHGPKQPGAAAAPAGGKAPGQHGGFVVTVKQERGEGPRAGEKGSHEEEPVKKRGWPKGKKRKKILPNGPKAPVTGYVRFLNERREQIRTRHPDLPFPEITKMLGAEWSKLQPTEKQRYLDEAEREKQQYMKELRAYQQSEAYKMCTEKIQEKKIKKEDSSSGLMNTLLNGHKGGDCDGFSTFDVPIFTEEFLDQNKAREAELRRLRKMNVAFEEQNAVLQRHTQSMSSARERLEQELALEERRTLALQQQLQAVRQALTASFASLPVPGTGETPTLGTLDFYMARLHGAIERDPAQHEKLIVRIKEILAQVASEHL

B1: GSE1 (protein, UniProt Q14687 1-1217)
chain: MKGMSHEPKSPSLGMLSTATRTTATVNPLTPSPLNGALVPSGSPATSSALSAQAAPSSSFAAALRKLAKQAEEPRGSSLSSESSPVSSPATNHSSPASTPKRVPMGPIIVPPGGHSVPSTPPVVTIAPTKTVNGVWRSESRQDAGSRSSSGGRERLIVEPPLPQEKAGGPAIPSHLLSTPYPFGLSPSSVVQDSRFPPLNLQRPVHHVVPPSTVTEDYLRSFRPYHTTDDLRMSSLPPLGLDPATAAAYYHPSYLAPHPFPHPAFRMDDSYCLSALRSPFYPIPTPGSLPPLHPSAMHLHLSGVRYPPELSHSSLAALHSERMSGLSAERLQMDEELRREREREREREREREADREREKEREREREKEREQEKEREREKERERELERQREQRAREKELLAAKALEPSFLPVAELHGLRGHATEERGKPSEQLTPTRAEKLKDAGLQAPKPVQHPLHPVPTPHHTVPSLISNHGIFSLPSSSAATALLIQRTNEEEKWLARQRRLRQEKEDRQSQVSEFRQQVLEQHLDMGRPPVPAEAEHRPESTTRPGPNRHEPGGRDPPQHFGGPPPLISPKPQLHAAPTALWNPVSLMDNTLETRRAESHSLHSHPAAFEPSRQAAVPLVKVERVFCPEKAEEGPRKREPAPLDKYQPPPPPPREGGSLEHQPFLPGPGPFLAELEKSTQTILGQQRASLPQAATFGELSGPLKPGSPYRPPVPRAPDPAYIYDEFLQQRRRLVSKLDLEERRRREAQEKGYYYDLDDSYDESDEEEVRAHLRCVAEQPPLKLDTSSEKLEFLQLFGLTTQQQKEELVAQKRRKRRRMLRERSPSPPTIQSKRQTPSPRLALSTRYSPDEMNNSPNFEEKKKFLTIFNLTHISAEKRKDKERLVEMLRAMKQKALSAAVADSLTNSPRDSPAVSLSEPATQQASLDVEKPVGVAASLSDIPKAAEPGKLEQVRPQELSRVQELAPASGEKARLSEAPGGKKSLSMLHYIRGAAPKDIPVPLSHSTNGKSKPWEPFVAEEFAHQFHESVLQSTQKALQKHKGSVAVLSAEQNHKVDTSVHYNIPELQSSSRAPPPQHNGQQEPPTARKGPPTQELDRDSEEEEEEDDEDGEDEEEVPKRKWQGIEAVFEAYQEHIEEQNLERQVLQTQCRRLEARHYSLSLTAEQLSHSVAELRSQKQKMVSERERLQAELDHLRKCLALPAMHWPRGYLKGYPR

Molecular target: T1, HMG20B (human (endogenous in THP1))
Assay: affinity purification with mass spectrometry; HMG20B MS-IP from nuclear-enriched lysates of THP1 AML cells exposed to OG86 250 nM or DMSO for 48 h

Row | Molecule | binding
1 | RCOR3 (from UniProt Q9P2K3 1-495) | binds
2 | RCOR1 (from UniProt Q9UKL0 1-485) | binds
3 | B1 | binds
